Assay results as given in PubChem BioAssay AID330 (DTP/NCI, 2004).
The list does not hold the whole screen: it is rich in T/C values a quarter to a half above the control, in often repeated tests (any T/C) and in doses without a T/C. Other doses and runs of a compound stand elsewhere. T/C is the treated group as % of the vehicle group. Some doses have a count of surviving animals in place of a T/C: the source files T/C as zero there, which appears to mark a toxic dose or a test without result, not a measured value. Some survivor counts are full or nearly so, which does not show that the dose was tolerated: the source hardly ever lists a survival T/C far under the control, and the zero likely stands for such cases as well. Counts of survivors are from the toxicity check (mostly the fifth day) where no day follows; animals may have died later. Schedules are NCI's codes, taken here to give the interval after Q, in days (D) or hours (H), and the number of doses after X. Some entries hold several experiments; the results are listed from low to high. For survival time, this PubChem deposit counts one and a half times the control or more as active, and values a quarter to a half above the control carry no call in these data; other NCI protocols may use other cut-offs. Some T/C values are followed by the survivors on the day toxicity was checked, most often the fifth; without a count, all were alive then.

System: P388 leukemia ip, CD2F1 mice, survival T/C
Assay: NCI In Vivo Anticancer Drug Screen. Data for tumor model P388 Leukemia (intraperitoneal) in CD2F1 (CDF1) mice
Conditions: T/C endpoint: median survival time, higher T/C = longer survival
[1] = dose: 240.0 mg/kg/injection, schedule: Q01DX005 (ip), vehicle: saline with Tween-80
[2] = dose: 400.0 mg/kg/injection, schedule: Q04DX003 (ip), vehicle: saline with Tween-80

In the case of `O=C(CCSCCCl)Nc1c([N+](=O)[O-])cc([N+](=O)[O-])cc1S(=O)(=O)O`, the T/C (dose: 12.5 mg/kg/injection, schedule: Q04DX003 (ip), vehicle: olive oil, sesame oil, peanut oil) is reported as 127 % of control, the T/C (dose: 50.0 mg/kg/injection, schedule: Q04DX003 (ip), vehicle: DMSO) is reported as 129 % of control and the T/C (dose: 50.0 mg/kg/injection, schedule: Q04DX003 (ip), vehicle: olive oil, sesame oil, peanut oil) is reported as 127 % of control. The T/C (dose: 100.0 mg/kg/injection, schedule: Q04DX003 (ip), vehicle: olive oil, sesame oil, peanut oil) was 125 % of control, the T/C (dose: 150.0 mg/kg/injection, schedule: Q04DX003 (ip), vehicle: DMSO) was 125 % of control and the T/C (dose: 200.0 mg/kg/injection, schedule: Q04DX003 (ip), vehicle: olive oil, sesame oil, peanut oil) was 126 % of control [5 of 6 alive]. For the same compound, the survivor count (dose: 400.0 mg/kg/injection, schedule: Q04DX003 (ip), vehicle: olive oil, sesame oil, peanut oil) was 1 of 6.
In the case of `CCCCCCCCCCCCOP(=O)(N1CC1(C)C)N1CC1(C)C` (stereo unspecified), the T/C (dose: 10.0 mg/kg/injection, schedule: Q01DX001 (ip), vehicle: saline with Tween-80) is reported as 99, 100, 104, 105 % of control, the T/C (dose: 20.0 mg/kg/injection, schedule: Q01DX001 (ip), vehicle: saline with Tween-80) is reported as 101, 102, 106, 122 % of control and the T/C (dose: 40.0 mg/kg/injection, schedule: Q01DX001 (ip), vehicle: saline with Tween-80) is reported as 102, 111, 112, 122 % of control. For the same compound, the T/C (dose: 80.0 mg/kg/injection, schedule: Q01DX001 (ip), vehicle: saline with Tween-80) was 101, 108, 110, 114 % of control [5 of 6 alive].
In the case of `O=C(c1ccccc1)c1ccc2n[se]nc2c1`, the survivor count (dose: 60.0 mg/kg/injection, schedule: Q01DX005 (ip), vehicle: saline with Tween-80) is reported as 3 of 6, the survivor count (dose: 120.0 mg/kg/injection, schedule: Q01DX005 (ip), vehicle: saline with Tween-80) is reported as 0 of 6 and the survivor count [1] is reported as 0 of 6.
With `CCN(CC)c1ccc2cc(S(=O)(=O)c3ccccc3)c(=O)oc2c1` the survivor count [1] was 4 of 6.
In the case of `NC(N)=NCCCSC(=O)C1CCCCC1`, the survivor count (dose: 200.0 mg/kg/injection, schedule: Q01DX005 (ip), vehicle: saline with Tween-80) is reported as 0 of 5.
With `CCCCCCCCCCCCCCCCCCCC[N+]1([O-])CCOCC1` the survivor count (dose: 100.0 mg/kg/injection, schedule: Q01DX009 (ip), vehicle: saline) was 6 of 6 and the survivor count (dose: 200.0 mg/kg/injection, schedule: Q01DX009 (ip), vehicle: saline) was 4 of 6.
In the case of `NC(N)=NC(N)=Nc1ccc2ccc3cccc4ccc1c2c34`, the survivor count [2] is reported as 0 of 6.
For `CCOC(=O)/C(C#N)=C(/SC)N1CC1`, the survivor count (dose: 100.0 mg/kg/injection, schedule: Q01DX009 (ip), vehicle: Klucel (hydroxypropylcellulose) (HPC)) was 3 of 5 and the survivor count (dose: 200.0 mg/kg/injection, schedule: Q01DX009 (ip), vehicle: Klucel (hydroxypropylcellulose) (HPC)) was 0 of 4.
`CC12CCC3c4ccc(OP(=O)(N5CC5)N5CC5)cc4CCC3C1CCC2O` (stereo unspecified) was tested, and the T/C (dose: 50.0 mg/kg/injection, schedule: Q01DX009 (ip), vehicle: saline with Tween-80) was 137 % of control and the survivor count (dose: 200.0 mg/kg/injection, schedule: Q01DX009 (ip), vehicle: saline with Tween-80) was 4 of 6.
With `CCOC(=O)/C(C#N)=C\c1ccc(OCc2ccccc2)c(OCc2ccccc2)c1` the survivor count (dose: 50.0 mg/kg/injection, schedule: Q01DX005 (ip), vehicle: Klucel (hydroxypropylcellulose) (HPC)) was 6 of 6.
For `Cc1nc2c([N+](=O)[O-])c(NCCCc3ccccc3)c([N+](=O)[O-])cc2[nH]1`, the survivor count (dose: 200.0 mg/kg/injection, schedule: Q04DX003 (ip), vehicle: saline with Tween-80) was 0 of 6 and 1 of 6 and the survivor count [2] was 0 of 6.
